These are yes or no findings as the source states them, for the method shown. A result given as binding can be weak or reduced; the word gives no strength.
B1: ribosomal protein uL1 of the E. faecalis 70S ribosome (protein, UniProt Q830Q6 1-229)
chain: MAKKSKKMQEALKKVDATKAYSVEEAVALAKDTNIAKFDATVEVAYKLNVDPKKADQQIRGAVVLPNGTGKTQTVLVFAKGEKAKEAEAAGADFVGDDDMVAKIQGGWFDFDVVVATPDMMATVGKLGRVLGPKGLMPNPKTGTVTMDVTKAVEEVKAGKVTYRVDKAGNIHVPIGKVSFDNEKLVENFNTINDVLLKAKPSTAKGQYIKNISVTTTFGPGIHVDQASF
B2: ribosomal protein uS7 of the E. faecalis 70S ribosome (protein, UniProt Q839H0 1-156)
chain: MPRKGPVAKRDVLPDPIYNSKLVTRLINRVMVDGKRGIAANIIYNSFDIIKESTGNDPLEVFEQAMKNVMPVLEVKARRVGGSNYQVPVEVRPERRTTLGLRWVVNYARLRGEHTMEERLAKEIMDAANNTGASVKKREDTHKMADANRAFAHYRW

Target: E. faecium PoxtA(E9F6)-EQ2 with C-terminal His6-TEV-FLAG3 tag (E. faecium)
Assay: cryo-EM structure

Binder | binding
B1 | binds
B2 | binds
